Measurements reported in paper PMC6288840.
No constants are given. Whether binding was seen depends on the method and setting. Binding seen in cells or lysates may run through a third protein. Some entries that bind do so weakly or less than the wild type. Where a sequence is shown, tags or fusion partners need not be part of it.

Protein sequences, listed by entry. Tags and fused reporters are not part of them.
UniProt P22147: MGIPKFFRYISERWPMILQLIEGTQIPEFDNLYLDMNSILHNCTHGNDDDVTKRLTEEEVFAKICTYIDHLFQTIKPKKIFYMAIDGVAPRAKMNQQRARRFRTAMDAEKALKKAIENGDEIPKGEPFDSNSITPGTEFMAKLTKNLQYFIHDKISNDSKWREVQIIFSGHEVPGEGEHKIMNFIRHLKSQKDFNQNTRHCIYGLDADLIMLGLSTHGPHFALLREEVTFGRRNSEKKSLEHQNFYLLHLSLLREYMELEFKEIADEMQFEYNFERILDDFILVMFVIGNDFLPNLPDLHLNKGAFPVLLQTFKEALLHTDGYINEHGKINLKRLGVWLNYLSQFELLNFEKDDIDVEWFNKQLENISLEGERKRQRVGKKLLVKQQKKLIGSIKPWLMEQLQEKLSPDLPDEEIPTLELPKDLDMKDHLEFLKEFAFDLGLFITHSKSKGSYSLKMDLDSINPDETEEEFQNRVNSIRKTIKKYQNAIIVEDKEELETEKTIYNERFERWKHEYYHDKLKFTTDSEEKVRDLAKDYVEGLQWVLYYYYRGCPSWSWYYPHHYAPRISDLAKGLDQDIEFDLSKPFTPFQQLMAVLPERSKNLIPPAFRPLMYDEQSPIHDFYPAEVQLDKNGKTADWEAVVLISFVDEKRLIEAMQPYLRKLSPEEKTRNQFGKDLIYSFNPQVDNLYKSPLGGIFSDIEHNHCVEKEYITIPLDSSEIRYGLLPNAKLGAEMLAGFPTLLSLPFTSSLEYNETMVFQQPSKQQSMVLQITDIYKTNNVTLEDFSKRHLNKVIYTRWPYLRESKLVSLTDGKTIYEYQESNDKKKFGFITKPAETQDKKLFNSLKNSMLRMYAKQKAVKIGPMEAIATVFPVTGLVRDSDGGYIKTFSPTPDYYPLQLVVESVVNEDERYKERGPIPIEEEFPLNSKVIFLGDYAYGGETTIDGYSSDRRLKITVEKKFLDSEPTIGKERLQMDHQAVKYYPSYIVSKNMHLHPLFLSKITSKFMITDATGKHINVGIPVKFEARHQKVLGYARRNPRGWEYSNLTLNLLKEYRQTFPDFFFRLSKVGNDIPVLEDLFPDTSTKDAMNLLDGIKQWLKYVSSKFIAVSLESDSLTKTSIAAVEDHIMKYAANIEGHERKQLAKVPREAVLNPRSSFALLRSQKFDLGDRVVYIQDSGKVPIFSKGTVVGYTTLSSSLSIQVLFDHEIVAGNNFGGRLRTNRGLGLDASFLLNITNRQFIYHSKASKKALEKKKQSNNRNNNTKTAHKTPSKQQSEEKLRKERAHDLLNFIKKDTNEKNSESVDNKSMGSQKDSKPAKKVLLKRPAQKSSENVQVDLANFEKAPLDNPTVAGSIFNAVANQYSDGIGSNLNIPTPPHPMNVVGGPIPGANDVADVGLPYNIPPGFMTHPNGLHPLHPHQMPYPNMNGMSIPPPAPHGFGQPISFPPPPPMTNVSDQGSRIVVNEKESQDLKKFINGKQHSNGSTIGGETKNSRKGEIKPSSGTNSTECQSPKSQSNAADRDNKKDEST
UniProt P38249: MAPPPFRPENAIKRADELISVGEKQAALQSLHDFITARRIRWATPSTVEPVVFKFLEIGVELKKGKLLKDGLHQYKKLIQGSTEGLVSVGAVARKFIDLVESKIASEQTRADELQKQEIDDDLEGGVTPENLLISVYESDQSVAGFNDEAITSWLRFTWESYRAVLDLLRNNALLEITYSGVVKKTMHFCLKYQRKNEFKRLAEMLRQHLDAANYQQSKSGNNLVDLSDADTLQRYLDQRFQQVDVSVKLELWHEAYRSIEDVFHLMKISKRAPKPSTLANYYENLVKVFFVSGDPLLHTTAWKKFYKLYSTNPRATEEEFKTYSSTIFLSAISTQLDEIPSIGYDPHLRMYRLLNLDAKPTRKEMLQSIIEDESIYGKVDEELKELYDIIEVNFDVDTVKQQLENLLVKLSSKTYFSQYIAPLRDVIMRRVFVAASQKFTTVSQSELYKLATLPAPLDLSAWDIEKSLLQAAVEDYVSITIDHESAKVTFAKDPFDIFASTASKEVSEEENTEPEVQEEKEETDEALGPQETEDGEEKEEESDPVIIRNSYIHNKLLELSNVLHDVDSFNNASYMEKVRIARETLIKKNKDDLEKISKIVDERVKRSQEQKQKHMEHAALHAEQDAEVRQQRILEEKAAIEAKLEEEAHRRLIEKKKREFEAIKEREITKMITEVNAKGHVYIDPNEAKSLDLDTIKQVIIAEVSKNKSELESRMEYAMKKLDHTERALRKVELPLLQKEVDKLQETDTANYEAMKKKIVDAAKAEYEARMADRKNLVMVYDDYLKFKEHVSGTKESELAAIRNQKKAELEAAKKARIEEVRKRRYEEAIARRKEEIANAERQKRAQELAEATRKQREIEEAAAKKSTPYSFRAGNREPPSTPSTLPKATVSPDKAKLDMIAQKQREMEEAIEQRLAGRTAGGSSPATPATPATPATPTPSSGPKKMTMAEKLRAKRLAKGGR

Target: Xrn1-Flag (S. cerevisiae) (UniProt P22147)
Experiment: co-IP; Xrn1-Flag immunoprecipitated with Flag antibodies from yeast cells that also carry a GFP-tagged partner; wild type or rad53 deletion cells, untreated or treated with 0.05% MMS for 3 hr

For Rpg1-GFP (from UniProt P38249 1-964), the binding was “binds”.

B1: Pat1-GFP (protein, UniProt P25644 1-796)
chain: MSFFGLENSGNARDGPLDFEESYKGYGEHELEENDYLNDETFGDNVQVGTDFDFGNPHSSGSSGNAIGGNGVGATARSYVAATAEGISGPRTDGTAAAGPLDLKPMESLWSTAPPPAMAPSPQSTMAPAPAPQQMAPLQPILSMQDLERQQRQMQQQFMNFHAMGHPQGLPQGPPQQQFPMQPASGQPGPSQFAPPPPPPGVNVNMNQMPMGPVQVPVQASPSPIGMSNTPSPGPVVGATKMPLQSGRRSKRDLSPEEQRRLQIRHAKVEKILKYSGLMTPRDKDFITRYQLSQIVTEDPYNEDFYFQVYKIIQRGGITSESNKGLIARAYLEHSGHRLGGRYKRTDIALQRMQSQVEKAVTVAKERPSKLKDQQAAAGNSSQDNKQANTVLGKISSTLNSKNPRRQLQIPRQQPSDPDALKDVTDSLTNVDLASSGSSSTGSSAAAVASKQRRRSSYAFNNGNGATNLNKSGGKKFILELIETVYEEILDLEANLRNGQQTDSTAMWEALHIDDSSYDVNPFISMLSFDKGIKIMPRIFNFLDKQQKLKILQKIFNELSHLQIIILSSYKTTPKPTLTQLKKVDLFQMIILKIIVSFLSNNSNFIEIMGLLLQLIRNNNVSFLTTSKIGLNLITILISRAALIKQDSSRSNILSSPEISTWNEIYDKLFTSLESKIQLIFPPREYNDHIMRLQNDKFMDEAYIWQFLASLALSGKLNHQRIIIDEVRDEIFATINEAETLQKKEKELSVLPQRSQELDTELKSIIYNKEKLYQDLNLFLNVMGLVYRDGEISELK
B1 was tested, and the binding was “binds”.

B2: Lsm3-GFP (protein, UniProt P57743 1-89)
chain: METPLDLLKLNLDERVYIKLRGARTLVGTLQAFDSHCNIVLSDAVETIYQLNNEELSESERRCEMVFIRGDTVTLISTPSEDDDGAVEI
In the case of B2, the binding is reported as “binds”.

B3: Hsp26-GFP (protein, UniProt P15992 1-214)
chain: MSFNSPFFDFFDNINNEVDAFNRLLGEGGLRGYAPRRQLANTPAKDSTGKEVARPNNYAGALYDPRDETLDDWFDNDLSLFPSGFGFPRSVAVPVDILDHDNNYELKVVVPGVKSKKDIDIEYHQNKNQILVSGEIPSTLNEESKDKVKVKESSSGKFKRVITLPDYPGVDADNIKADYANGVLTLTVPKLKPQKDGKNHVKKIEVSSQESWGN
With B3 the binding was “binds”.

B4: Arx1-GFP (protein, UniProt Q03862 1-593)
chain: MALAISHEDTQILLKDKNILQESVLNKYRTAGQIAQTALKYVTSLINDSYHSKTTQRQLTVPELCLLTDSFILTRLEQYYKNKVNERGIAIPTTIDIDQISGGWCPEIDDTQNLLNWNKGKDSTFASSVTGTLRPGDLVKITLGVHIDGYTSEVSHTMVIYPVDETKPILQPTGPLLGGKADAVAAAHIAMETVVALLACALTPEKLPASLGGTSSGITGQLIRTIVDTIARSYNCGVVPGSRVRRIRRFLAGQNEGIVAEREYKGVVWTESHQEADLLSNTDAKDLTVVDRGQSTPFTNVSAIPSDDFVVQSGEVYLIDLKMASLEHCTKKGLVTLETVDSYTGKSHKAGELIARPGAYVRDFAQTHILKLKTSRQLLTKIDKQGVYPFKLSHLSSNFPFVHENEEELQSLKKDLKSFRLGMSEISNNYLCVESPIQIARWVPWDHILKATNPNGNLSYDATSTLTLPGHELPLPKLGVSAIKLKSLMNSTKESISLPVARECNTIVLCDSSVSTTDRPELLRLTGGSKTCQPSWIHSQHELNPQDSIVQGIFQLATLAKDKRFGLLLKETQPMKQKSVETSNGGVEETMKM
For B4, the binding was “binds”.

B5: Mss116-GFP (protein, UniProt P15424 27-664)
chain: NHITWAVSRRLYNDGNRDQRNFGRNQRNNNSNRYRNSRFNSRPRTRSREDDDEVHFDKTTFSKLIHVPKEDNSKEVTLDSLLEEGVLDKEIHKAITRMEFPGLTPVQQKTIKPILSSEDHDVIARAKTGTGKTFAFLIPIFQHLINTKFDSQYMVKAVIVAPTRDLALQIEAEVKKIHDMNYGLKKYACVSLVGGTDFRAAMNKMNKLRPNIVIATPGRLIDVLEKYSNKFFRFVDYKVLDEADRLLEIGFRDDLETISGILNEKNSKSADNIKTLLFSATLDDKVQKLANNIMNKKECLFLDTVDKNEPEAHERIDQSVVISEKFANSIFAAVEHIKKQIKERDSNYKAIIFAPTVKFTSFLCSILKNEFKKDLPILEFHGKITQNKRTSLVKRFKKDESGILVCTDVGARGMDFPNVHEVLQIGVPSELANYIHRIGRTARSGKEGSSVLFICKDELPFVRELEDAKNIVIAKQEKYEPSEEIKSEVLEAVTEEPEDISDIVISLISSYRSCIKEYRFSERRILPEIASTYGVLLNDPQLKIPVSRRFLDKLGLSRSPIGKAMFEIRDYSSRDGNNKSYDYDDDSEISFRGNKNYNNRSQNRDYDDEPFRRSNNNRRSFSRSNDKNNYSSRNSNIY
B5 was tested, and the binding was “binds”.

B6: Edc3-GFP (protein, UniProt P39998 1-551)
chain: MSQFVGFGVQVELKDGKLIQGKIAKATSKGLTLNDVQFGDGGKSQAFKVRASRLKDLKVLTVASQSGKRKQQRQQQQQNDYNQNRGEHIDWQDDDVSKIKQQEDFDFQRNLGMFNKKDVFAQLKQNDDILPENRLQGHNRKQTQLQQNNYQNDELVIPDAKKDSWNKISSRNEQSTHQSQPQQDAQDDLVLEDDEHEYDVDDIDDPKYLPITQSLNITHLIHSATNSPSINDKTKGTVINDKDQVLAKLGQMIISQSRSNSTSLPAANKQTTIRSKNTKQNIPMATPVQLLEMESITSEFFSINSAGLLENFAVNASFFLKQKLGGRARLRLQNSNPEPLVVILASDSNRSGAKALALGRHLCQTGHIRVITLFTCSQNELQDSMVKKQTDIYKKCGGKIVNSVSSLESAMETLNSPVEIVIDAMQGYDCTLSDLAGTSEVIESRIKSMISWCNKQRGSTKVWSLDIPNGFDAGSGMPDIFFSDRIEATGIICSGWPLIAINNLIANLPSLEDAVLIDIGIPQGAYSQRTSLRKFQNCDLFVTDGSLLLDL
For B6, the binding was “binds”.

B7: Scd6-GFP (protein, UniProt P45978 1-349)
chain: MSQYIGKTISLISVTDNRYVGLLEDIDSEKGTVTLKEVRCFGTEGRKNWGPEEIYPNPTVYNSVKFNGSEVKDLSILDANINDIQPVVPQMMPPASQFPPQQAQSPPQAQAQAHVQTNPQVPKPESNVPAAVAGYGVYTPTSTETATASMNDKSTPQDTNVNSQSRERGKNGENEPKYQRNKNRSSNRPPQSNRNFKVDIPNEDFDFQSNNAKFTKGDSTDVEKEKELESAVHKQDESDEQFYNKKSSFFDTISTSTETNTNMRWQEEKMLNVDTFGQASARPRFHSRGLGRGRGNYRGNRGNRGRGGQRGNYQNRNNYQNDSGAYQNQNDSYSRPANQFSQPPSNVEF
In the case of B7, the binding is reported as “binds”.

B8: Nrp1-GFP (protein, UniProt P32770 1-719)
chain: MHYVVLELQVAHLPDTPKDQCRIANIAFQIVNAETLVCHYGTNSLPSIEVNGTTKSLESAMVQLDKDIHDVIGNDDFVLVSLYSTWHIRVTLPRQARDDGFILTSYLQHPKVFDLWKEFDRWCVNHPEILGQKKAISNNNCNTKSISINAAKNTKDLDEIVRILEVSIPTEEAGSVPEIYSLLKRTTDILIQLHKKCTSPEDMESVLTKPYDSHTDIRAFLQEKSKILYMNNLPPDTTQSELESWFTQYGVRPVGFWTVKNIVEDTSNVNNNWSLNNSPYVEDQDSISGFVVFQTHEEATEVLALNGRSILSNLANTKQPRVVEHVLELQPSSTGVLDKAQEILSPFPQSKNKPRPGDWNCPSCGFSNFQRRTACFRCSFPAPSNSQIHTANSNNNVNSSRNNLNNRVNSGSSSNISNTAANHPYGAPEFNMIANNTPAALTYNRAHFPAITPLSRQNSLNMAPSNSGSPIIIADHFSGNNNIAPNYRYNNNINNNNNNINNMTNNRYNINNNINGNGNGNGNNSNNNNNHNNNHNNNHHNGSINSNSNTNNNNNNNNGNNSNNCNSNIGMGGCGSNMPFRAGDWKCSTCTYHNFAKNVVCLRCGGPKSISGDASETNHYIDSSTFGPASRTPSNNNISVNTNGGSNAGRTDGNDNKGRDISLMEFMSPPLSMATKSMKEGDGNGSSFNEFKSDKANVNFSNVGDNSAFGNGFNSSIRW
For B8, the binding was “binds”.

B9: Pbp1-GFP (protein, UniProt P53297 1-722)
chain: MKGNFRKRDSSTNSRKGGNSDSNYTNGGVPNQNNSSMFYENPEITRNFDDRQDYLLANSIGSDVTVTVTSGVKYTGLLVSCNLESTNGIDVVLRFPRVADSGVSDSVDDLAKTLGETLLIHGEDVAELELKNIDLSLDEKWENSKAQETTPARTNIEKERVNGESNEVTKFRTDVDISGSGREIKERKLEKWTPEEGAEHFDINKGKALEDDSASWDQFAVNEKKFGVKSTFDEHLYTTKINKDDPNYSKRLQEAERIAKEIESQGTSGNIHIAEDRGIIIDDSGLDEEDLYSGVDRRGDELLAALKSNSKPNSNKGNRYVPPTLRQQPHHMDPAIISSSNSNKNENAVSTDTSTPAAAGAPEGKPPQKTSKNKKSLSSKEAQIEELKKFSEKFKVPYDIPKDMLEVLKRSSSTLKSNSSLPPKPISKTPSAKTVSPTTQISAGKSESRRSGSNISQGQSSTGHTTRSSTSLRRRNHGSFFGAKNPHTNDAKRVLFGKSFNMFIKSKEAHDEKKKGDDASENMEPFFIEKPYFTAPTWLNTIEESYKTFFPDEDTAIQEAQTRFQQRQLNSMGNAVPGMNPAMGMNMGGMMGFPMGGPSASPNPMMNGFAAGSMGMYMPFQPQPMFYHPSMPQMMPVMGSNGAEEGGGNISPHVPAGFMAAGPGAPMGAFGYPGGIPFQGMMGSGPSGMPANGSAMHSHGHSRNYHQTSHHGHHNSSTSGHK
In the case of B9, the binding is reported as “binds”.

B10: YGR250C/Rie1-GFP (protein, UniProt P53316 1-781)
chain: MNIAEEPSDEVISSGPEDTDICSQQTSASAEAGDQSIKIERKTSTGLQLEQLANTNLLTIRIKWQLQEEEDDHCNSRITDQIMDTIQHYKGISVNNSDTETYEFLPDTRRLQVLEQNKDIYLYEHGSQEYEKSYKDNEEEDDWRYDTVLQAQFKYPKSLENACTDISELLKSEPIGQHIDKWSIGVNKHALTYPGNIFVGGIAKSLSIGELSFLFSKYGPILSMKLIYDKTKGEPNGYGFISYPLGSQASLCIKELNGRTVNGSTLFINYHVERKERERIHWDHVKENNNDDNFRCLFIGNLPYHNPEKVETLITPKEVIEVIKKELSKKFPDFDIISYYFPKRSNTRSSSSVSFNEEGSVESNKSSNNTNGNAQDEDMLKGYGFIKLINHEQALAAIETFNGFMWHGNRLVVNKAVQHKVYNNHNSHDRHPSISNHNDMEVLEFANNPMYDYNNYTYDRYYFNNNKNGNSNDTSNVRYFDSVRSTPVAEKMDLFYPQRESFSEGRGQRVPRFMGNKFDMYQYPSTSYSLPIPMSNQQESNLYVKHIPLSWTDEDLYDFYKSFGEIISVKVITVGGSKNKYRQQSNDSSSDNDLPVGSSRGYGFVSFESPLDAAKAILNTDGYQVSKDQVLSVSFAQKRGNLSSSDDDDQSQTDNSSKFQNFQPHNDYHKAYPTKYNKKFINALMTQNQSQQQVSRENYFIPLQYPNTNTKPVNSYNLISANQNNANWMMPMFPSFGFIPQVPPVPYIIPPQNPAANHIPIMANGSNEEEEFSSGDYSMDY
B10 was tested, and the binding was “binds”.
